No constants are given. Whether binding was seen depends on the method and setting. For some of these results: Binding seen in cells or lysates may run through a third protein. Some entries that bind do so weakly or less than the wild type. Sequences can lack the tags named with a protein.
Experiments:
recombinant BMP4 (rBMP4) [1] = target: T1, recombinant BMP4 (rBMP4) (mouse, UniProt P21275 293-408, limits assumed); assay: ELISA and pull-down (retold)
T1 sequence (looked up): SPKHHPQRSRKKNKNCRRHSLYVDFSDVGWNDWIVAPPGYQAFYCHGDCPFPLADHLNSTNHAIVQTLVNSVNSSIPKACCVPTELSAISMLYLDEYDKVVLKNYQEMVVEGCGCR

recombinant BMP4 (rBMP4) [2] = target: T1, recombinant BMP4 (rBMP4); assay: ELISA with FLAG (M2) antibody (FIG. 7A); also pull-down on M2 beads, silver-stained gel (FIG. 7B)
recombinant BMP4 (rBMP4) [3] = target: T1, recombinant BMP4 (rBMP4); assay: ELISA with FLAG (M2) antibody (FIG. 19A); also pull-down on M2-beads (FIG. 19B)
recombinant BMP4 (rBMP4) [4] = target: T1, recombinant BMP4 (rBMP4); assay: ELISA; co-immunoprecipitation

binding (recombinant BMP4 (rBMP4) [1]): binds
binding (recombinant BMP4 (rBMP4) [2]): binds
binding (recombinant BMP4 (rBMP4) [3]): binds
binding (recombinant BMP4 (rBMP4) [4]): binds
B1: mouse recombinant Olfml3-FLAG tagged protein (rOlfml3-FLAG) (other, not shown: small tags and cut ends)
chain: QQHHLVEYMERRLAALEERLAQCQDQSSRHAAELRDFKNKMLPLLEVAEKERETLRTEADSISGRVDRLEREVDYLETQNPALPCVELDEKVTGGPGAKGKGRRNEKYDMVTDCSYTVAQVRSMKILKRFGGSVGLWTKDPLGPAEKIYVLDGTQNDTAFVFPRLRDFTLAMAARKASRIRVPFPWVGTGQLVYGGFLYYARRPPGGPGGGGELENTLQLIKFHLANRTVVDSSVFPAESLIPPYGLTADTYIDLAADEEGLWAVYATRDDDRHLCLAKLDPQTLDTEQQWDTPCPRENAEAAFVICGTLYVVYNTRPASRARIQCSFDASGTLAPERAALSYFPRRYGAHASLRYNPRERQLYAWDDGYQIVYKLEMKKKEEEV
